Measurements published in PMC7842913.
These are yes or no findings as the source states them, for the method shown. Binding seen in cells or lysates may run through a third protein. Some binding calls cover weakened binding; strength is not graded here.

Amino acid sequences for entries named in this document (tags omitted). Residues count along the entry.
UniProt Q8C6B2, residues 7-89: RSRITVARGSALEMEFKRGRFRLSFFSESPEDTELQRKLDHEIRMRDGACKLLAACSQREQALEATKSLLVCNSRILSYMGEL
UniProt P61586: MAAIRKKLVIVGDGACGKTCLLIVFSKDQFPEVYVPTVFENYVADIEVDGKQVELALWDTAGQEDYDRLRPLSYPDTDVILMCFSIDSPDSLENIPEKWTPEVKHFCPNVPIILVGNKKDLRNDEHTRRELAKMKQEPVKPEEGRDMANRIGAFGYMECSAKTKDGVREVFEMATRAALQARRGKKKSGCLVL

Biological target: GST fusion of the Rho binding domain (RBD) of Rhotekin (UniProt Q8C6B2)
Experiment: pull-down; only the target purified

RhoA, endogenous in HeLa cells (GTP-bound) (from UniProt P61586 1-193)
binding: binds
